Reference: US12083134B2, “Anacardic acid for neural repair” (Vanderbilt University, priority 2018, dated 2024)

System: IL-33 expression in OPCs
Experiment: q-PCR on the induction of IL-33 in OPCs cultured with AA
Type: cell-based, rat
Conditions: 3 h, 20 ng/cDNA; for GAPDH (ct): control gene
Experimental: The effect of AA on the expression of myelin genes, MBP, and IL-33 was examined. […] Natarajan et al., PLOS One, 11(3):e0152163 (2016); Sriram et al., Neurology, Abstract presented at the American Academy of Neurology, 2016 (2016). The studies were done in OPCs obtained from rat pups. OPCs were treated with AA (2.5 μM) for 3 hours and message levels were quantified using qPCR analysis. OPCs treated with AA induced the major myelin genes Mbp, Mog and Plp.
The expression of IL-33 induced by AA in OPCs was also examined. […] (FIG. 3). The data is expressed as fold change compared to the control protein GAPDH.

Question: Which results are given for `CCCCCCCCCCCCCCCc1cccc(O)c1C(=O)O` [AA, anacardic acid]?
Answer: IL-33 (ct) (AA 2.5 μM): 30.72 ct; GAPDH (ct) (AA 2.5 μM): 28.285 ct; IL-33 (ct) (AA 5 μM): 30.41 ct; GAPDH (ct) (AA 5 μM): 27.135 ct
